# Data reported in PubChem BioAssay AID540256 (National Center for Advancing Translational Sciences (NCATS), 2011).
# Among all 300,000 compounds or so, about 3,700 (1.2%) were called active. This list was built around the results that the source calls inconclusive (neither active nor inactive); the mix of calls is not that of the screen. Calls come from the whole dose curve; tested in HEK293 cells. Potencies of inconclusive entries are doubtful fits and often do not repeat.
# Assay: qHTS for Inhibitors of binding or entry into cells for Lassa Virus; note: nearly all actives have a fitted effect of over 50% in size
# Details: Lassa virus pseudotype entry inhibition, cell reporter; activity change, negative = inhibition: at 37.9 µM (top of the series) unless noted
# % is set by controls: 0 for no effect and ±100 for the full control effect; potency is the fitted concentration of half-maximal effect.
SMILES,Potency,"activity change, negative = inhibition"
O=C(CN1C(=O)c2ccccc2S1(=O)=O)c1ccc(F)c(F)c1,"inconclusive: 10 µM [inhibitor, partial curve, poor fit]",
Cc1csc(SCC(=O)NCc2ccccc2Cl)n1,"inconclusive: 0.631 µM [inhibitor, partial curve, poor fit]",
O=C1c2ccccc2NC(c2ccccc2)N1Cc1ccccc1 (stereo not given),"inconclusive: 35.5 µM [inhibitor, single point]",
CCc1cccc(NCc2ccccc2-c2nnc(-c3ccccc3Cl)o2)c1,"inconclusive: 2.82 µM [activator, single point]",
CS(=O)(=O)c1sc2nc(-c3ccccc3)cc(-c3ccccc3)c2c1N,"inconclusive: 0.251 µM [inhibitor, full curve, poor fit]",
Cc1ccc(CN2[C@@H](C)[C@@H](C)Oc3c(Cl)cccc3[S+]2(=O)[O-])cc1,"inconclusive: 0.056 µM [activator, full curve, poor fit]",
Cc1ccccc1Cn1cnc2c(cnn2C(C)(C)C)c1=O,"inconclusive: 12.6 µM [inhibitor, partial curve, poor fit]",
Cc1cc(C)n(-c2nc(NCCC(C)C)c3c4c(sc3n2)COC(C)(C)C4)n1,,inactive: 8.87%
O=S1(=O)CC(N2CCN(c3ccccn3)CC2)CN1C1CCCCC1 (stereo not given),"inconclusive: 1.12 µM [activator, full curve, poor fit]",
Cc1ccc(-c2csc(NC(=O)CN3CC(C)OC(C)C3)n2)cc1 (stereo not given),"inconclusive: 7.94 µM [inhibitor, partial curve]",
Cc1ccc(-n2c(C)cc(/C=N/NC(=O)c3ccncc3)c2C)cc1C,"inconclusive: 3.98 µM [inhibitor, partial curve]",
O=C(CCSc1ccc(Cl)cc1)N1CCN(c2ccc(O)cc2)CC1,"inconclusive: 12.6 µM [inhibitor, partial curve, poor fit]",
O=C(NCC(O)c1ccc([N+](=O)[O-])cc1)c1cccc(S(=O)(=O)N2CCOCC2)c1 (stereo not given),"inconclusive: 5.62 µM [inhibitor, single point]",
Nc1c(C(=O)Nc2ccc(Br)cc2)sc2nc(-c3ccco3)ccc12,"inconclusive: 22.4 µM [inhibitor, single point]",
COc1cc(N2CCN(C(C)C)CC2)ccc1Nc1nc(Nc2ccc(F)cc2C(N)=O)c2cc[nH]c2n1,active: 25 µM,
COc1cccc(/C=N/NC(=O)CSCC(=O)Nc2ccccc2)c1O,"inconclusive: 7.3 µM [inhibitor, partial curve, poor fit]",
Cc1ccc(NC(=O)CS(=O)CC(=O)N2CCN(C3CCCC3)CC2)cc1 (stereo not given),"inconclusive: 2.51 µM [inhibitor, partial curve, poor fit]",
CCCCN1CC(COCc2ccccc2)Oc2cccc(Oc3ccccc3)c2S1(=O)=O (stereo not given),"inconclusive: 3.96 µM [inhibitor, full curve, poor fit]",
CCn1cc(C2=NOC(C(=O)Nc3ccc4c(c3)OCO4)C2)c(C)n1 (stereo not given),,inactive: -25.2%
C=CCn1c(=NC(=O)C2COc3ccccc3O2)sc2cc(S(N)(=O)=O)ccc21 (stereo not given),,inactive: 1.91%
O=C(Cn1cc(S(=O)(=O)Cc2ccc(F)cc2)c2ccccc21)NCc1ccccc1Cl,"inconclusive: 25.1 µM [inhibitor, single point]",
CNC(=O)c1cc(C)c(-c2ccccc2)s1,,inactive: 17.2%
Cc1cc(C(=O)Nc2nc3ccc(S(C)(=O)=O)cc3s2)c(C)o1,"inconclusive: 1.03 µM [activator, full curve, poor fit]",
Cc1nc(-c2cccc(NS(=O)(=O)c3ccc4ccccc4c3)c2)cs1,,inactive: 5.48%

# Complete entries, quoted from the list.
# Cc1ccccc1Cn1cnc2c(cnn2C(C)(C)C)c1=O in the list: Potency: inconclusive: 12.6 µM [inhibitor, partial curve, poor fit]
# Cc1ccc(CN2[C@@H](C)[C@@H](C)Oc3c(Cl)cccc3[S+]2(=O)[O-])cc1 in the list: Potency: inconclusive: 0.056 µM [activator, full curve, poor fit]
# COc1cc(N2CCN(C(C)C)CC2)ccc1Nc1nc(Nc2ccc(F)cc2C(N)=O)c2cc[nH]c2n1 in the list: Potency: active: 25 µM
# O=C(Cn1cc(S(=O)(=O)Cc2ccc(F)cc2)c2ccccc21)NCc1ccccc1Cl in the list: Potency: inconclusive: 25.1 µM [inhibitor, single point]

# (more compounds)

SMILES,Potency,"activity change, negative = inhibition"
CSc1cccc(NC(=O)C2CCN(S(=O)(=O)c3ccc4c(c3)NC(=O)CO4)CC2)c1,"inconclusive: 10 µM [inhibitor, partial curve]",
Cc1cc(C(=O)NCC(=O)OCC(=O)N(C(C)C)C(C)C)ccc1[N+](=O)[O-],"inconclusive: 28.2 µM [activator, single point]",
O=C(NCC(c1ccco1)N1CCc2ccccc21)C(=O)Nc1ccccc1F (stereo not given),"inconclusive: 28.2 µM [inhibitor, single point]",
CCC(c1nnnn1Cc1ccco1)N(CCc1ccccc1)Cc1cc2ccc(OC)cc2[nH]c1=O (stereo not given),"inconclusive: 11.2 µM [inhibitor, partial curve, poor fit]",
O=C(N/N=C/c1cccnc1)c1cc(-c2ccc(Br)cc2)nc2ccccc12,"inconclusive: 2.51 µM [inhibitor, partial curve, poor fit]",
CCOC(=O)c1cn2nc(Oc3ccc(C(=O)OC)cc3)ccc2n1,,inactive: 0.24%
COc1ccc(OCCN2C(=O)c3ccccc3C2=O)cc1,,inactive: 28.6%
CC1C(=O)N2CCCc3cc(S(=O)(=O)Nc4ccccc4F)cc1c32 (stereo not given),,inactive: -9.96%
CC1CCN(C(=O)Cn2ncc3c4ccccc4n(Cc4ccc(Cl)cc4)c3c2=O)CC1,,inactive: 18.6% [at 46.1 µM]
COc1ccccc1N1CCN(C(=O)Cc2c(C(=O)O)c(C)cn2C)CC1,,inactive: 3.31% [at 46.1 µM]
O=C(NNC(=O)c1cccc2ccccc12)c1ccc2c(c1)OCO2,"inconclusive: 1.58 µM [inhibitor, partial curve]",
COc1ccc(NC(=O)N[C@@H](Cc2ccccc2)C(=O)NN)cc1,,inactive: -4.65%
CSc1nn(Cc2ccc(Br)cc2)c(N(C(C)=O)C(C)=O)c1S(=O)(=O)c1ccccc1,"inconclusive: 11.2 µM [inhibitor, partial curve, poor fit]",
O=C(NCc1ccco1)c1cc(-c2ccccn2)nc2ccccc12,"inconclusive: 0.73 µM [inhibitor, full curve]",
CCOC(=O)CSC1=C(C#N)C(c2ccccc2)C(C(C)=O)=C(C)N1 (stereo not given),"inconclusive: 1.3 µM [activator, full curve, poor fit]",
CC(C)C(=O)N=C1SC2CS(=O)(=O)CC2N1Cc1ccccc1 (stereo not given),,inactive: 10.8%
CCN(CC)C(=O)c1cc2c(=O)oc3ccccc3c2s1,,inactive: -8.56% [at 14.3 µM]
COc1ccc(-c2nc(CS(=O)CC(=O)NCc3ccc(Cl)cc3)c(C)o2)cc1OC (stereo not given),,inactive: 2.7% [at 46.1 µM]
COc1ccc(C(=O)N/N=C/c2c(C)nn(-c3ccccc3)c2OC)cc1,"inconclusive: 35.5 µM [inhibitor, single point]",
COc1ccc(S(=O)(=O)Cc2ccc(C(=O)NCCc3cc(OC)ccc3OC)o2)cc1,"inconclusive: 15.8 µM [inhibitor, partial curve, poor fit]",
O=C(Nc1nc2ccccc2[nH]1)c1cc2ccccc2o1,,inactive: -25.3% [at 46.1 µM]
CO/N=C/c1cccn1-c1nccc(OC)c1C#N,,inactive: -9.85% [at 46.1 µM]
Fc1ccc(CNc2nc3ccc(Cl)cc3n3nnnc23)cc1,,inactive: 22.6% [at 46.1 µM]
O=S(=O)(Nc1cccc(-c2ccc(N3CCCCC3)nn2)c1)c1ccc(Cl)s1,"inconclusive: 1.78 µM [inhibitor, full curve]",

SMILES,Potency,"activity change, negative = inhibition"
CCOCC(=O)Nc1nc2ccc(OCC)cc2s1,"inconclusive: 9.2 µM [inhibitor, partial curve]",
CC(C)NC(=O)c1cc(-c2ccc3c(c2)OCO3)on1,"inconclusive: 14.1 µM [inhibitor, single point]",
Clc1ccccc1OCc1nc(-c2ccncc2)no1,,inactive: -20.3%
COc1ccc(C(=O)N/N=C/c2ccc(OC(=O)c3cccs3)cc2)cc1,,inactive: -2.31%
O=C(CN1CCC(n2nnc3cc(F)ccc32)CC1)NC1CC1,,inactive: 19.2%
N#CNC(=Nc1cccc(F)c1)SCc1cccc(F)c1,"inconclusive: 0.178 µM [inhibitor, full curve, poor fit]",
O=C(NCCc1ccccc1Cl)C1CCN(S(=O)(=O)c2cccs2)CC1,"inconclusive: 29.1 µM [inhibitor, single point]",
CC(C)n1c(SCC(=O)Nc2nc3ccccc3s2)nc2c1c(=O)n(C)c(=O)n2C,,inactive: -20.4%
CCOc1ccc(OCC(=O)Nc2c(C(=O)Nc3ccc(C)cc3)oc3ccccc23)cc1,,inactive: -6.1% [at 46.1 µM]
CN(Cc1ccccc1F)c1nc(-c2cccnc2)nc2ccccc12,"inconclusive: 0.794 µM [inhibitor, single point]",
O=C(Nc1ccc(F)cc1F)c1ccc2c(=O)n3c(nc2c1)CCCCC3,"inconclusive: 1.12 µM [activator, full curve, poor fit]",
Cc1cccc(C)c1NC(=S)NCCSc1ccc(Cl)cc1,"inconclusive: 35.5 µM [inhibitor, single point]",
CC[C@H](C)[C@H](NC(=O)OCc1ccccc1)C(=O)Nc1ccc(NC(C)=O)cc1,,inactive: -18.3% [at 46.1 µM]
Cc1ccc(C)c(/C=C/C(=O)c2ccccc(=O)c2O)c1,"inconclusive: 17.8 µM [inhibitor, single point]",
NNc1nc(-c2ccccc2)c2cc(Cl)ccc2n1,,inactive: -27.9%
Cc1cc(N/N=C\c2ccc(Br)cc2)nc(-n2nc(C)cc2C)n1,"inconclusive: 6.31 µM [inhibitor, partial curve, poor fit]",
CCOc1ccc(CCNC(=O)c2ccc3nc(CC)c(CC)nc3c2)cc1,"inconclusive: 3.16 µM [inhibitor, single point]",
Cc1cc(C)cc(N(CC(=O)Nc2ccc(-c3nc4ccc(C)cc4s3)cc2)S(C)(=O)=O)c1,,inactive: 9.7%
O=C(/C=C/c1ccco1)Nc1ccccc1C(=O)Nc1cccc(C(=O)O)c1,,inactive: -22.6%
O=C(Nc1ncc(Cc2cccc(C(F)(F)F)c2)s1)c1ccc(-c2cccc([N+](=O)[O-])c2)o1,"inconclusive: 6.31 µM [inhibitor, partial curve, poor fit]",
COc1ccc(C(=O)Nc2nncs2)c(OC)c1,"inconclusive: 0.651 µM [activator, full curve, poor fit]",
CCN(CC)c1ccc(NC(=O)C2COc3ccc(OC)cc3C2)c(C)c1 (stereo not given),"inconclusive: 3.16 µM [inhibitor, full curve]",
